The supplement of paper PMC10735217
Structures can show the parent of a compound that is named as a salt. The list shows a part of the results. Single values are uncertain here, since repeats match poorly.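 The human kidney-derived cells carry a stably integrated construct of eight TEAD-binding elements driving luciferase, read by luminescence in a drug-repurposing library screen. A compound counts as a hit when its signal is more than five robust Z scores above the plate mean.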

System: HEK293A TEAD-LUC reporter
Assay: TEAD-luciferase reporter activity (YAP activation), robust Z score vs plate; higher = stronger YAP/TEAD activation
Conditions: 24 h

| SMILES | TEAD-luciferase reporter activity (compound concentration: 200 nM) | TEAD-luciferase reporter activity (compound concentration: 2 uM) | TEAD-luciferase reporter activity (compound concentration: 10 uM) |
| --- | --- | --- | --- |
| CCCCN(CC)c1nc(C)nc2c1c(C)cn2-c1c(C)cc(C)cc1C | inactive: 4.15 | inactive: -1.31 | inactive: 0.224 |
| CC[C@H](C)[C@H](NC(=O)[C@@H]1CCCN1C(=O)[C@@H](NC(=O)[C@@H](N)Cc1ccccc1)C(C)C)C(=O)N[C@@H](Cc1ccccc1)C(=O)N[C@H](C(=O)N[C@@H](Cc1ccc(O)cc1)C(=O)NCC(=O)N[C@@H](CCC(=O)O)C(=O)N[C@@H](CC(C)C)C(=O)N[C@@H](CCC(N)=O)C(=O)N[C@@H](CCCNC(=N)N)C(=O)N[C@@H](CC(C)C)C(=O)N[C@@H](CCC(N)=O)C(=O)N[C@@H](CCC(=O)O)C(=O)N[C@@H](CCCCN)C(=O)N[C@@H](CCC(=O)O)C(=O)N[C@@H](CCCNC(=N)N)C(=O)N[C@@H](CC(N)=O)C(=O)N[C@@H](CCCCN)C(=O)NCC(=O)N[C@@H](CCC(N)=O)C(=O)O)[C@@H](C)O [[Leu13]-Motilin] | inactive: 4.7 | inactive: 1.33 | inactive: -0.633 |
| CC[C@H](C)[C@@H]1C(=O)N[C@H](C2Cc3ccccc3C2)C(=O)N1[C@@H](C(=O)N1CCOCC1)c1ccc(C)nc1C [epelsiban] | inactive: -0.758 | inactive: -1.33 | inactive: 4.14 |
| COc1c2c(nc3ccccc13)CN(CCC1CCN(Cc3ccccc3)CC1)C2=O | inactive: -0.218 | inactive: 0.669 | inactive: 0.941 |
| CC(C)CCCCC(=O)NC(CCN)C(=O)NC(C(=O)NC(CCN)C(=O)NC1CCNC(=O)C(C(C)O)NC(=O)C(CCN)NC(=O)C(CCN)NC(=O)C(CC(C)C)NC(=O)C(CC(C)C)NC(=O)C(CCN)NC1=O)C(C)O (stereo unspecified) [colistin methanesulfonate sodium (CMS)] |  | inactive: -0.453 |  |
| CC(C)CCCCC(=O)NC(CCN)C(=O)NC(C(=O)NC(CCN)C(=O)NC1CCNC(=O)C(C(C)O)NC(=O)C(CCN)NC(=O)C(CCN)NC(=O)C(CC(C)C)NC(=O)C(CC(C)C)NC(=O)C(CCN)NC1=O)C(C)O (stereo unspecified) [Polymyxin E2] | inactive: -0.804 |  | inactive: 2.65 |
| CCC(C)N(C)C(=O)c1cc2ccccc2c(-c2ccccc2Cl)n1 (stereo unspecified) | inactive: 0.114 | inactive: 1.5 | inactive: -2.38 |
| CC1(C)O[C@@H]2C[C@H]3[C@@H]4C[C@H](F)C5=CC(=O)CC[C@]5(C)[C@H]4[C@@H](O)C[C@]3(C)[C@]2(C(=O)CO)O1 [Flurandrenolide] | inactive: 1.38 | inactive: 0.284 | inactive: -0.411 |
| O=C(NCCOC(=O)c1ccccc1Nc1ccnc2cc(Cl)ccc12)c1cccnc1 | inactive: -1.86 | inactive: -0.551 | inactive: -0.0256 |
| CC(C)n1c(=O)nc(-c2ccccc2)c2cc3c(cc21)OCO3 | inactive: 0.841 | inactive: -0.497 | inactive: 0.629 |
| Cc1cc(OCCCS(C)(=O)=O)cc(C)c1-c1cccc(COc2ccc3c(c2)OC[C@H]3CC(=O)O)c1 | inactive: -0.31 |  | inactive: 0.21 |
| Cc1cc(OCCCS(C)(=O)=O)cc(C)c1-c1cccc(COc2ccc3c(c2)OC[C@H]3CC(=O)O)c1 [fasiglifam] |  | inactive: -0.159 |  |
| CC(C)=CCOc1cc(NC(=O)c2ccccc2)ccc1Cl | inactive: -0.0679 | inactive: 0.015 | inactive: 0.239 |
| COc1cc2c(cc1OC)C(C)N(S(=O)(=O)c1ccc(C)cc1)CC2 (stereo unspecified) | inactive: -1.75 | inactive: -0.641 | inactive: 2.73 |
| COc1cncnc1N1CCN(CCCc2c[nH]c3ccc(F)cc23)CC1 | inactive: 3.68 | inactive: 0.201 | inactive: -0.494 |
| C#CCC/C(O)=C(\C#N)C(=O)Nc1ccc(C(F)(F)F)cc1 | inactive: -0.111 | inactive: 0.964 | inactive: -0.184 |
| Cc1nnc(C(C)C)n1C1C[C@H]2CC[C@@H](C1)N2CC[C@H](NC(=O)C1CCC(F)(F)CC1)c1ccccc1 (stereo partly specified) [maraviroc] | inactive: -0.388 | inactive: -1.22 | inactive: 0.674 |
| Cc1cc(Nc2nc(CC3(C(=O)O)CCN(C(=O)c4cccc(Cl)c4Cl)CC3)ccc2F)n[nH]1 | inactive: 0.872 | inactive: -1.63 | inactive: 1.14 |
| CCC(=O)N1Cc2ccccc2CC2(CCCCN2CC2CCOCC2)C1 (stereo unspecified) | inactive: -2.91 |  | inactive: 4.54 |
| COc1cc2c(Oc3ccc4[nH]c(C)cc4c3F)ncnc2cc1OCCCN1CCCC1 [cediranib] | inactive: -0.982 | inactive: -3.23 | inactive: -1.92 |
| CS(=O)(=O)NNC(=O)c1ccc[n+](CC(=O)c2cccs2)c1 | inactive: -0.956 | inactive: -0.351 | inactive: 1.21 |
| CC(=O)OCCCCc1cc2cccnc2n(-c2ccccc2)c1=O | inactive: -1.63 | inactive: -0.354 | inactive: 0.455 |
| O=P(O)(O)OCC(O)CO (stereo unspecified) | inactive: -1.87 | inactive: -1.61 | inactive: -0.921 |
| C=C(CC)CN1CCCC12Cc1ccccc1CNC2=O (stereo unspecified) | inactive: -0.8 |  |  |
| CCN(CC)C(=O)N1CCN(C)CC1 | inactive: 0.977 |  | inactive: -1.62 |
| CCN(CC)C(=O)N1CCN(C)CC1 [Diethylcarbamazine] |  | inactive: -0.388 |  |

Rewritten with tabs: entries from further up
SMILES	TEAD-luciferase reporter activity (compound concentration: 200 nM)	TEAD-luciferase reporter activity (compound concentration: 2 uM)	TEAD-luciferase reporter activity (compound concentration: 10 uM)
CC(=O)OCCCCc1cc2cccnc2n(-c2ccccc2)c1=O	inactive: -1.63	inactive: -0.354	inactive: 0.455
O=P(O)(O)OCC(O)CO (stereo unspecified)	inactive: -1.87	inactive: -1.61	inactive: -0.921
C=C(CC)CN1CCCC12Cc1ccccc1CNC2=O (stereo unspecified)	inactive: -0.8		

Later entries:

| SMILES | TEAD-luciferase reporter activity (compound concentration: 200 nM) | TEAD-luciferase reporter activity (compound concentration: 2 uM) | TEAD-luciferase reporter activity (compound concentration: 10 uM) |
| --- | --- | --- | --- |
| CCCCc1nc(CCc2ccccc2)[nH]c(=O)c1Cc1ccc(-c2ccccc2-c2nnn[nH]2)cc1 | inactive: -0.554 | inactive: -1.02 | inactive: -0.661 |
| Fc1ccc(NC(=S)Nc2cc(Cl)cc(Cl)c2)cc1 | inactive: 0.458 | inactive: -0.451 | inactive: -0.117 |
| CN1[C@@H](CC(=O)c2ccccc2)CCC[C@H]1C[C@H](O)c1ccccc1 | inactive: -1.09 |  | inactive: 1.61 |
| CN1[C@@H](CC(=O)c2ccccc2)CCC[C@H]1C[C@H](O)c1ccccc1 [lobeline] |  | inactive: -0.63 |  |
| CC(C)(CC1Cc2ccccc2C1)NC[C@@H](O)COc1ccc(CCC(=O)O)cc1C#N | inactive: 2.16 | inactive: -1.23 | inactive: 1.48 |
| CCCCCCCCNC1=[O]->[V]2(=[O])(<-[O]=C(NCCCCCCCC)C(N)C[S]2)[S]CC1N (stereo unspecified) | inactive: -0.317 | inactive: 0.0814 | inactive: 1.2 |
| CS(=O)(=O)N(c1cc(F)cc(F)c1)C1CN(C(c2ccc(Cl)cc2)c2ccc(Cl)cc2)C1 [Drinabant] | inactive: -1.06 | inactive: 0.182 | inactive: 0.332 |
| Nc1nc(N)c2cc(S(=O)(=O)c3ccc4ccccc4c3)ccc2n1 | active: 9.96 | inactive: -1.17 | inactive: -1.27 |
| O=C(N/N=C/c1ccccc1O)c1ccncc1 | inactive: -1.56 | inactive: 1.74 | inactive: -1.55 |
| COc1cccc2c1N(C(=O)c1ccc(OC(C)C)nc1)CCC2 | inactive: 2.82 | inactive: -1.13 | inactive: -0.94 |
| COc1cc2nc(-c3ccc(N4CCN(C)CC4)cc3)nc(NCCN3CCOCC3)c2cc1OC | inactive: -0.864 | inactive: 4.11 | active: 7.89 |
| C=C1/C(=C\C=C2/CCC[C@]3(C)[C@@H]([C@H](C)OCCC(C)(C)O)CC[C@@H]23)C[C@@H](O)C[C@@H]1O [maxacalcitol] | inactive: 1.23 | inactive: -2.43 | inactive: -0.838 |
| COC(=O)[C@H]1[C@H]2C[C@@H]3c4[nH]c5cc(OC)ccc5c4CCN3C[C@H]2C[C@H](OC)[C@@H]1OC [Metoserpate Hydrochloride] | inactive: -0.342 | inactive: 0.668 | inactive: -1.49 |
| O=C(c1ccccc1)N1CCC(n2c(=O)[nH]c3ccccc32)CC1 | inactive: -1.89 |  | inactive: 0.89 |
| CN(C/C=C/C#CC(C)(C)C)Cc1cccc2c(F)cc(F)cc12 | inactive: 0.599 | inactive: -0.207 | inactive: -0.267 |
| O=Cc1c(O)cccc1OCCCCC(=O)O [velaresol] | inactive: -0.371 | inactive: -0.341 | inactive: 0.0635 |
| CC(=O)N[C@@H]1[C@@H](OC(C)C(=O)NC(C)C(=O)NC(CCC(N)=O)C(=O)O)[C@H](O)[C@@H](CO)O[C@@H]1O (stereo partly specified) | inactive: -0.415 | inactive: -0.676 | inactive: 0.753 |
| CC(CCc1ccc(O)cc1)NCCc1ccc(O)c(O)c1 (stereo unspecified) [dobutamine] | inactive: -0.797 | inactive: -1.03 | inactive: 3.4 |
| Cc1cc(C)nc(OC(C(=O)O)C(OCCc2ccccc2)(c2ccccc2)c2ccccc2)n1 (stereo unspecified) | inactive: -1.97 | inactive: -1.51 | inactive: 2.41 |
| COc1ccc(/C(C)=N/OC(N)=O)cc1OC1CCCC1 | inactive: -0.844 | inactive: -0.401 | inactive: 0.0658 |
| COc1nccc(-c2c(-c3ccc(F)cc3)ncn2C2CCC(O)CC2)n1 (stereo unspecified) | inactive: -0.602 | inactive: -2.15 | inactive: 0.656 |
| CN(C)C(=O)n1cc(C(=O)c2ccn3c2CS[C@@H]3c2cccnc2)c2ccc(-c3ccc(F)cc3)cc21 | inactive: -0.34 | inactive: -0.778 | inactive: 0.508 |
| COc1cc(NC(=O)C2CC2)c(Cl)cc1C(=O)N[C@@H]1CCN(Cc2ccccc2)C1 | inactive: -1.17 | inactive: -1.35 | inactive: 0.633 |
| O=C([O-])c1ccccc1-c1c2cc(I)c(=O)c(I)c-2oc2c(I)c([O-])c(I)cc12 | inactive: -0.455 | inactive: -0.18 | inactive: 2.22 |
| COc1ccc(CC(=O)N2Cc3ccccc3CC23CCCN(C(=O)CCCN)C3)cc1 (stereo unspecified) | inactive: 0.805 |  | inactive: 2.57 |
